Measurements reported in PMC8918193.

T1: casein kinase 1α (CK1α) (rat (endogenous in NRK-49F)) (UniProt P97633)
T1 sequence: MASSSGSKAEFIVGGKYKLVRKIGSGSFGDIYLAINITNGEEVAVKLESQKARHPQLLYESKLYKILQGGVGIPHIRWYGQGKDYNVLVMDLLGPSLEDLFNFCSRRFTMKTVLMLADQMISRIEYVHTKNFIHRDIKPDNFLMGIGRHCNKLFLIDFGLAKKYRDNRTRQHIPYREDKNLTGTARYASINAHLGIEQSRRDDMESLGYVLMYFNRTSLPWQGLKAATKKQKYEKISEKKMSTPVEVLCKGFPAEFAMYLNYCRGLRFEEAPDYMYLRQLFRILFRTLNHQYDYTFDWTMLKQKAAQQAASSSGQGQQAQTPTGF

B1: casein kinase 1α (CK1α) (protein, UniProt P97633 1-325)
chain: T1 sequence

Experiments:
[1] = target: T1, casein kinase 1α (CK1α) (rat (endogenous in NRK-49F)); test: co-IP; NRK-49F cells lysed in NP40 buffer (50 mM Tris, 150 mM NaCl, 1 mM EDTA, 0.5% NP-40, 1 mM PMSF); about 500 µg cell protein with antibody against HRD1, GSK3β or CK1α overnight at 4 °C, protein A/G agarose beads 6 h, three washes, immunoblot; IgG as control
[2] = target: HMG-CoA reductase degradation protein 1 (HRD1) (rat (endogenous in NRK-49F)); test: as above

Molecule | binding [1] | binding [2]
HMG-CoA reductase degradation protein 1 (HRD1) (rat (endogenous in NRK-49F)) | binds | –
B1 | – | binds

Results are given in words; binding and its absence hold for the method and conditions named. In cells and extracts the contact can be indirect. Binding can be weak; no strength is given.
